Experimental data: patent US8647644B1, “Methods of using capped mesoporous silicates” (Iowa State University Research Foundation, Inc., priority 2006, dated 2014)
At least one compound was matched to its structure with a doubt left.

Assay: Analyte loading of gold-capped MSN
Type: physicochemical
Conditions: gold-capped linker-MSN, 2.6×10^−4 M loading solution

SMILES: O=C1OC2(c3ccc(O)cc3Oc3cc(O)ccc32)c2ccccc21 [fluorescein]
- amount loaded: 22 µmol/g
